Results from US9085598B2, “Compounds targeting the cell invasion protein complex, their pharmaceutical compositions and methods of use thereof” (THE ROYAL INSTITUTE FOR THE ADVANCEMENT OF LEARNING/MCGILL …, priority 2011, dated 2015).
At least one structure is not confirmed: it was looked up by name or label, or the drawing left a doubt.

Chains of the proteins cited; added tags and fusions are not shown.
UniProt Q05397, whole entry: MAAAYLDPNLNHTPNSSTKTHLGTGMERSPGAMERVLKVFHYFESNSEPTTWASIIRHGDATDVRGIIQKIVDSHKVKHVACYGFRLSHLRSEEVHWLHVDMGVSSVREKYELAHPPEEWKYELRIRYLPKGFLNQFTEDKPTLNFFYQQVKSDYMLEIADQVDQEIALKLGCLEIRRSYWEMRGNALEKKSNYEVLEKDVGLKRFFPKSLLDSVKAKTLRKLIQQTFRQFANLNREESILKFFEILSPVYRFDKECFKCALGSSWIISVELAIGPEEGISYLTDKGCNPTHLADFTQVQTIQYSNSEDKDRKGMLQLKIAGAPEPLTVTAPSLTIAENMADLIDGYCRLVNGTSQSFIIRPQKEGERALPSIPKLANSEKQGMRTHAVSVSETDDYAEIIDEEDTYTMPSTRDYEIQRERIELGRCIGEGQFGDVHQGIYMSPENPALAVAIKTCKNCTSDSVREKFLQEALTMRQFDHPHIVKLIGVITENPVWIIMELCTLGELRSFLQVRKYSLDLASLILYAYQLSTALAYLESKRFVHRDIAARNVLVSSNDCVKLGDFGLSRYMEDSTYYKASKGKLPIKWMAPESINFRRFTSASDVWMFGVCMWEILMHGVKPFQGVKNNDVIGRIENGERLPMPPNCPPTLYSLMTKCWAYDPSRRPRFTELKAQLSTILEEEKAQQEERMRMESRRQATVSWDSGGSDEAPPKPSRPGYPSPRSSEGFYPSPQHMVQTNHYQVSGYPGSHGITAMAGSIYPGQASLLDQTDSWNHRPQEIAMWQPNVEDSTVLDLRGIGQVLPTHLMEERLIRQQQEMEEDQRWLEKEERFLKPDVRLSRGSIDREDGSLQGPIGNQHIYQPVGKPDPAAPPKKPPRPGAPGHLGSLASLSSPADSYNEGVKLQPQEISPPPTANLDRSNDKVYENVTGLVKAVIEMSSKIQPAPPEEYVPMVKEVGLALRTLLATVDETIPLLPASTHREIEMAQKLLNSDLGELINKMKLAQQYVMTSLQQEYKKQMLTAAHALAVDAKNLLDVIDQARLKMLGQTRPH

Biological target: FAK (Homo sapiens, UniProt Q05397)
Test: Cellular FAK kinase assay (FAK immunoprecipitated from treated MDA231 cells, [γ-32P]-ATP)
Conditions: 50 μM, MDA-231 cells, vs untreated controls, FIG. 1B

O=c1c2ccccc2[se]n1-c1ccccc1 [Ebselen, reference compound]
inhibition of FAK kinase activity in intact cells: unable to inhibit FAK kinase activity
